# ± gives the standard error. Many of these values have a large error.
# B1: glmS ribozyme (parent)
# chain: AUAAAAGCGCCAGAACUACAGAAAUGUAGUUGACGAGGAGGAGGUUUAUCGAAUUUUCGGCGGAUGCCUCCAAA
# Variants of: B1
# Assay: KM; higher = weaker cofactor use; RNA array
# Details: with glucosamine-6-phosphate
# Summary of the method: (§1)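 Over ~14 h at 37 °C, tiles were imaged as glucosamine-6-phosphate (40 μM to 10 mM) in HEPES/KCl/Mg(OAc)2 buffer flowed across sequenced MiSeq chips. The chips carried barcoded ribozyme variants transcribed in situ by E. coli RNA polymerase and tracked with a hybridised Cy3 probe. After normalisation to baseline and to non-cleaving reference variants, one- or two-exponential decay fits of per-tile medians gave kobs. kcat and KM followed from weighted Michaelis–Menten fits across concentrations.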
row,Variant,KM [µM]
1,A12U U31G,1530 ± 910
2,G41C C71U,2580 ± 590
3,G13U A53G C68G,79.2 ± 50
4,A15G C67A C71U,421 ± 260
5,C10G A12C,7310 ± 5500
6,A14C G66U,1010 ± 570
7,U65G C68U,2180 ± 1200
8,U54C U56A,2420 ± 1900
9,C11A U30A,1940 ± 600
10,U45A U57C,7520 ± 6000
11,U46G A53G,1310 ± 890
12,A15U C67U,1920 ± 970
13,A12U U57C,4270 ± 2800
14,G29C U54C,1640 ± 1000
15,A14U U31A,1360 ± 700
16,A15U U65A,1080 ± 410
17,G32U U46C,39500 ± 34000
18,U45C U54G,829 ± 800
19,G41A C70G,699 ± 480
20,G13C G29U,3700 ± 710
21,C10G C61A,180 ± 67
22,A14U A33U,13900 ± 3300
23,A14C A15U U56G,583 ± 440
24,G13U G41C,101000 ± 12000
25,G9U C61G,2350 ± 460
26,G37A U65A,4340 ± 1300

row,Variant,KM [µM]
1,A48C C68U,1310 ± 540
2,U31A A48C,1780 ± 980
3,A15G U57C C58A,1230 ± 1100
4,C10G C11A,1950 ± 1900
5,A12U A48G,628 ± 400
6,A12U A48U,3400 ± 1900
7,A6U U56G,1090 ± 430
8,G7U G66U C70G,9.89 ± 7.5
9,C10A A39G,13.2 ± 9.7
10,U30A U31A,1810 ± 1500
11,G13C C70U,1400 ± 140
12,A12U U69A,53.4 ± 34
13,A14U A39C,2790 ± 700
14,A14U A39U A52G,113000 ± 20000
15,G13U A42G U45A,4260 ± 2600
16,U54A U55G,1700 ± 1400
17,A14G G35C,95.6 ± 49
18,A15G U46G,2020 ± 170
19,C8A G37U C70A,43.9 ± 40
20,A12U C71U,1790 ± 350
21,C11G,665 ± 260
22,C11U,1800 ± 450
23,U65G C71A,6040 ± 5300
24,G44A C67U,548 ± 430
25,C16G U46A,676 ± 180
26,U46A U65G,3090 ± 2900

row,Variant,KM [µM]
1,C11U U56A C70U,479 ± 270
2,A14G U45G,3450 ± 1400
3,C16U G37A,3880 ± 2900
4,A15G G37A,2670 ± 1600
5,A6U A23C U30G,2780 ± 300
6,C11U U45G,4010 ± 2200
7,A6G U45A,2050 ± 1300
8,U31A U57G,2970 ± 780
9,G7C G13U,465 ± 370
10,C71U,1730 ± 1400
11,G66A C71A,666 ± 500
12,G13A C58U,18600 ± 16000
13,U55G C67G,183 ± 170
14,A12C C58A,15200 ± 580
15,A15G A39G,792 ± 410
16,A12G U56A,7960 ± 2300
17,A12G U56C,9850 ± 1600
18,A15C C67A,778 ± 490
19,A15C C67G,1530 ± 22
20,G13U A36C C70U,24.4 ± 14
21,U31G A39G,4690 ± 3200
22,A14U A53C,1970 ± 410
23,A14U A53G,4790 ± 3200
24,A6G C10A,181 ± 140
25,A15U A64C,10800 ± 10000
26,A12G C58G,1950 ± 1100

row,Variant,KM [µM]
1,G41A U45G,1200 ± 800
2,G13U A53G,4460 ± 1300
3,U30G A53C,2690 ± 910
4,A6G U30A,1920 ± 1200
5,A6G U30G,5370 ± 1400
6,C10U G32C,1070 ± 750
7,A14U U31G A64G,3010 ± 1600
8,C10U U47A,300 ± 150
9,A12U A53C,1170 ± 680
10,C10G G62C,759 ± 600
11,U65A C71G,1710 ± 720
12,A14G C58U,10300 ± 3100
13,A14G C58G,3880 ± 2900
14,G13U G29C,720 ± 620
15,A6G G13A,360 ± 310
16,C11U C58G,188 ± 18
17,C11U G59A,1470 ± 810
18,U45A U54A,2630 ± 1200
19,A15U A53G,1990 ± 520
20,A39C C71A,1930 ± 720
21,C11U A12U G32A,2370 ± 1900
22,U31A U65C,10800 ± 7800
23,A15G U31G A39U,5090 ± 3000

# Variants of: B1
# Assay: kcat; higher = faster cleavage; RNA array
# Details: with glucosamine-6-phosphate
# Summary of the method: as §1
row,Variant,kcat [s⁻¹]
1,G41C C71U,0.000207 ± 2.1e-05
2,G13U A53G C68G,4.16e-05 ± 3.1e-06
3,U65G C68U,0.00167 ± 0.00057
4,G62U C71A,< 1e-05
5,U54C U56A,0.012 ± 0.0074
6,U45A U57C,0.000656 ± 0.00035
7,A42G C68U,0.0205 ± 0.019
8,U46G A53G,0.00499 ± 0.0025
9,G29C U54A,0.00648 ± 0.0047
10,G29C U54C,0.00154 ± 0.00063
11,A15U U65A,0.000377 ± 6.3e-05
12,G32U U46C,0.000671 ± 0.00047
13,U45C U54G,0.00107 ± 0.00071
14,G41A C70G,0.000368 ± 0.00014
15,U49A C61A,< 1e-05
16,G37A U65A,0.000179 ± 2.2e-05
17,G40A G44A,3.11e-05 ± 1.6e-05
18,A33U C34G,< 1e-05
19,A48C C68U,8.75e-05 ± 8.5e-06
20,U31A A48C,0.000149 ± 3.3e-05
21,G38A U55A,4.66e-05 ± 2.8e-05
22,U30A U31A,0.0143 ± 0.0085
23,A20U G32C,0.000241 ± 0.00017
24,A14G G32C U49G,1.97e-05 ± 1.3e-05

# As entered above.
# kcat [s⁻¹] with U49A C61A reads < 1e-05
# kcat [s⁻¹] with A15U U65A reads 0.000377 ± 6.3e-05
# kcat [s⁻¹] with U45C U54G reads 0.00107 ± 0.00071
# kcat [s⁻¹] with G32U U46C reads 0.000671 ± 0.00047
# kcat [s⁻¹] with G40A G44A reads 3.11e-05 ± 1.6e-05
# kcat [s⁻¹] with U65G C68U reads 0.00167 ± 0.00057

# Continuation.

row,Variant,kcat [s⁻¹]
1,C50A G66A C70G,9.78e-05 ± 6.7e-05
2,U47C C61G,< 1e-05
3,C50G U56C,1.76e-05 ± 2.6e-06
4,U54A U55G,0.0218 ± 0.015
5,A14G G35C,< 1e-05
6,A14G G51U,< 1e-05
7,G62U U69G,3.26e-05 ± 2e-05
8,G13C A14C C61A C67U,3.08e-05 ± 1.3e-05
9,U65G C71A,0.00388 ± 0.0027
10,G44A C67U,0.0102 ± 0.0063
11,C16G U46A,0.000198 ± 1.7e-05
12,A15U G41U A42G U57C C70A,4.33e-05 ± 2.9e-05
13,C50A C61G C68U,4.44e-05 ± 2.8e-05
14,U46A U65G,0.00335 ± 0.0021
15,A14G U45G,0.0225 ± 0.0076
16,G32U C50G,2.96e-05 ± 1.7e-05
17,C16U G37A,0.00345 ± 0.0021
18,U31A U57G,4.33e-05 ± 3.3e-06
19,G38C G63U,< 1e-05
20,C71U,0.0412 ± 0.026
21,G66A C71A,0.00247 ± 0.0013
22,G13A C58U,0.000256 ± 0.00015
23,U55G C67G,0.000672 ± 0.00037
24,U31G A39G,0.0429 ± 0.027

row,Variant,kcat [s⁻¹]
1,G29U C34U C50G C70U,5.76e-05 ± 3.4e-05
2,A14U A53C,0.00136 ± 0.00017
3,A14U A53G,0.0134 ± 0.0067
4,A15U A64C,3.64e-05 ± 1.9e-05
5,G37U C67A,< 1e-05
6,G41A U45G,0.000391 ± 0.00013
7,C50U C58A C68U,4.7e-05 ± 2.4e-05
8,U30G A53C,0.00231 ± 0.0004
9,U31C U56G,0.00563 ± 0.004
10,A33C A36C,< 1e-05
11,G40C G59A,< 1e-05
12,A14G C34U C68G,4.51e-05 ± 2.3e-05
13,U65A C71G,0.000477 ± 0.00013
14,A14C C70U,0.0166 ± 0.016
15,G38U U47C,< 1e-05
16,C50G G63C,2.84e-05 ± 1.1e-05
17,U45A U54A,0.115 ± 0.045
18,A15U A53G,0.00765 ± 0.0013
19,G41A U49G,3.79e-05 ± 6.4e-06
20,A39C C71A,6.38e-05 ± 6.4e-06
21,U46C C71G,0.000293 ± 0.00017
22,U47C G63A,< 1e-05
23,U31A U65C,0.000791 ± 0.00041

# Variants of: B1
# Assay: self-cleavage kobs at 640 uM GlcN6P; higher = faster cleavage; RNA array
# Details: with glucosamine-6-phosphate
# Summary of the method: as §1
row,Variant,self-cleavage kobs at 640 uM GlcN6P [s⁻¹]
1,G13U A53G C68G,3.25e-05 ± 2.5e-05
2,G37A U65A,1.74e-05 ± 1.1e-05
3,A14U A39U A52G,1.42e-05 ± 1.3e-05
4,G13A C58U,2.22e-05 ± 1.9e-05
5,A12C C58A,3e-05 ± 2.2e-05
6,A12G C58G,1.42e-05 ± 1.2e-05
7,A14G C34U C68G,3.17e-05 ± 2.9e-05
8,C11U C58G,2.58e-05 ± 1.5e-05
9,A39C C71A,1.06e-05 ± 9.9e-06
10,C11U A12U G32A,2.16e-05 ± 2e-05

# Variants of: B1
# Assay: self-cleavage kobs at 160 uM GlcN6P; higher = faster cleavage; RNA array
# Details: with glucosamine-6-phosphate
# Summary of the method: as §1
row,Variant,self-cleavage kobs at 160 uM GlcN6P [s⁻¹]
1,C11A U30A,3.21e-05 ± 2e-05
2,G13C C70U,1.99e-05 ± 1.5e-05
3,G62U U69G,2.6e-05 ± 1.5e-05
4,A6G U45A,2.91e-05 ± 2.1e-05
5,A12U A53C,0.000976 ± 0.0005

# Variants of: B1
# Assay: self-cleavage kobs at 2500 uM GlcN6P; higher = faster cleavage; RNA array
# Details: with glucosamine-6-phosphate
# Summary of the method: as §1
row,Variant,self-cleavage kobs at 2500 uM GlcN6P [s⁻¹]
1,A42G C68U,0.01 ± 0.0064
2,G38A U55A,3.49e-05 ± 2.5e-05
3,C11G,< 1e-05
4,C50A C61G C68U,4.63e-05 ± 3.1e-05
5,G32U C50G,0.000336 ± 0.00024
6,A6U A23C U30G,2.59e-05 ± 1.6e-05
7,U31A U57G,2.08e-05 ± 1.9e-05
8,G66A C71A,0.000434 ± 0.00042
9,G13A C58U,2.73e-05 ± 1.4e-05
10,C50U C58A C68U,3.11e-05 ± 2.2e-05

# Variants of: B1
# Assay: self-cleavage kobs at 10000 uM GlcN6P; higher = faster cleavage; RNA array
# Details: with glucosamine-6-phosphate
# Summary of the method: as §1
row,Variant,self-cleavage kobs at 10000 uM GlcN6P [s⁻¹]
1,G41A C70G,0.00449 ± 0.0037
2,A15U G41U A42G U57C C70A,2.7e-05 ± 1.6e-05
3,U31G A39G,0.077 ± 0.064
4,G29U C34U C50G C70U,2.4e-05 ± 1.6e-05
5,C10U U47A,1.91e-05 ± 1.9e-05

# Variants of: B1
# Assay: self-cleavage kobs at 40 uM GlcN6P; higher = faster cleavage; RNA array
# Details: with glucosamine-6-phosphate
# Summary of the method: as §1
row,Variant,self-cleavage kobs at 40 uM GlcN6P [s⁻¹]
1,G13U A42G U45A,2.3e-05 ± 2e-05
2,U46A U65G,2.08e-05 ± 1.1e-05
3,G32U C50G,2.31e-05 ± 1.6e-05
4,G29U C34U C50G C70U,2.08e-05 ± 1.5e-05
5,U30G A53C,1.69e-05 ± 1.2e-05
6,U65A C71G,5.24e-05 ± 2.7e-05

# From the supplement of paper PMC7125110
